Results are given in words; binding and its absence hold for the method and conditions named. In cells and extracts the contact can be indirect. Some results given as binding are weak or reduced against the parent protein; the word gives no strength.
How the values were obtained:
Test in all cases: co-IP; endogenous proteins of mouse tracheal smooth muscle lysate (1% Nonidet P-40, 150 mM NaCl, 20 mM Tris-HCl pH 8.0); 800 ug protein with 5 ug antibody or preimmune IgG overnight at 4 C, protein A agarose, washed with PBS, immunoblot
[1] = biological target: Na+/Ca2+ exchanger 1 (mouse (endogenous in tracheal smooth muscle)) (UniProt P70414)
[2] = biological target: Na+/Ca2+ exchanger 2 (mouse (endogenous in tracheal smooth muscle)) (UniProt Q8K596)
[3] = biological target: Na+/Ca2+ exchanger 3 (mouse (endogenous in tracheal smooth muscle)) (UniProt S4R2P9)
[4] = biological target: Transient receptor potential vanilloid 4 (mouse (endogenous in tracheal smooth muscle)) (UniProt Q9EPK8)
[5] = biological target: IP3 receptor 1 (inositol 1,4,5-trisphosphate receptor subtype 1) (mouse (endogenous in tracheal smooth muscle)) (UniProt P11881)

By UniProt entry, the sequences of proteins in these tests, tags left out. Residues count along the entry.
UniProt P70414, residues 33-970: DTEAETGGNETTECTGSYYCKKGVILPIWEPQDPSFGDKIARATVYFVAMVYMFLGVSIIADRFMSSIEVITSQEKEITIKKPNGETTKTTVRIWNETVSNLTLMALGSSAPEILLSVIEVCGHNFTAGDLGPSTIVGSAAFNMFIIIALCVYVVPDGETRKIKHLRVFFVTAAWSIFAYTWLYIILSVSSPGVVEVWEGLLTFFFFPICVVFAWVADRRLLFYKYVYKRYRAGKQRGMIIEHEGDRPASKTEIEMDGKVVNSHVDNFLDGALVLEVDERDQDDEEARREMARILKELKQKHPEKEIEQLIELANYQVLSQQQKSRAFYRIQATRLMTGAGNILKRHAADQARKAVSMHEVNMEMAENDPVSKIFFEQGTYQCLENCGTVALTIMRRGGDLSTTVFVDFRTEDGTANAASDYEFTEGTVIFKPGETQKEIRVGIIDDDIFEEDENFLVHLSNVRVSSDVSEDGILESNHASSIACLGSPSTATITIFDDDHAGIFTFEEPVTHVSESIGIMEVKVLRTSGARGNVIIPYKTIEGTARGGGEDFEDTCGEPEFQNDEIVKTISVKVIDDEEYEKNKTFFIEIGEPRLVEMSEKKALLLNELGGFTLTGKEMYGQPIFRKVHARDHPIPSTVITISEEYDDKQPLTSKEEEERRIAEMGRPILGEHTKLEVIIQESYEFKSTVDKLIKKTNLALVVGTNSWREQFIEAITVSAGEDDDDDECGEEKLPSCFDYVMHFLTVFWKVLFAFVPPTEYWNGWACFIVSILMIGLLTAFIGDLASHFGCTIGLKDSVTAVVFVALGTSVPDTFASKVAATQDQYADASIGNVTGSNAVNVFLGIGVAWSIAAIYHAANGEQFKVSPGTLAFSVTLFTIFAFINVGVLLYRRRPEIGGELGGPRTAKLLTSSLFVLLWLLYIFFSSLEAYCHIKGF
UniProt Q8K596, residues 21-921: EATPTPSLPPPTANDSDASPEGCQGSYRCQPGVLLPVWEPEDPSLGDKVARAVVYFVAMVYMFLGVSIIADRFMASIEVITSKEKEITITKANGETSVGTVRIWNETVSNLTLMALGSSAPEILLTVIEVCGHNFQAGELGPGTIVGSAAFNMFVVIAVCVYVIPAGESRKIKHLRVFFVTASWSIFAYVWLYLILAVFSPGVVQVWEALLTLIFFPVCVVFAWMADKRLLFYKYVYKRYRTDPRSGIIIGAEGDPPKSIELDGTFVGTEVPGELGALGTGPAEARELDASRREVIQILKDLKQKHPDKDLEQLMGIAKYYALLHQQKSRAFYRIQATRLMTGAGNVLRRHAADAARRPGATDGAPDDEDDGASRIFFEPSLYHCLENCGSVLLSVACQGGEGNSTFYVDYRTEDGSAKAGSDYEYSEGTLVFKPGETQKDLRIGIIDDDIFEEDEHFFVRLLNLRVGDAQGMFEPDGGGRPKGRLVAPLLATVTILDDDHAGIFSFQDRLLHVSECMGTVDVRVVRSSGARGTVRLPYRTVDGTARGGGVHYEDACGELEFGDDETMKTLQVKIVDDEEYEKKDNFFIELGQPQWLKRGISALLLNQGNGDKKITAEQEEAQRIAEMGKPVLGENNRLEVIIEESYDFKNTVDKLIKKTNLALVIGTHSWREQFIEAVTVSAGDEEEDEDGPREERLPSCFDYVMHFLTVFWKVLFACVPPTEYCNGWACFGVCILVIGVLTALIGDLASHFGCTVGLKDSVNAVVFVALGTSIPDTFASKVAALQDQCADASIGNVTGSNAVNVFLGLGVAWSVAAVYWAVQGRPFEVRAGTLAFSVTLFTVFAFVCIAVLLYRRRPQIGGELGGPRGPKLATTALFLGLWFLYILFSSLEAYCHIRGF
UniProt S4R2P9, residues 31-928: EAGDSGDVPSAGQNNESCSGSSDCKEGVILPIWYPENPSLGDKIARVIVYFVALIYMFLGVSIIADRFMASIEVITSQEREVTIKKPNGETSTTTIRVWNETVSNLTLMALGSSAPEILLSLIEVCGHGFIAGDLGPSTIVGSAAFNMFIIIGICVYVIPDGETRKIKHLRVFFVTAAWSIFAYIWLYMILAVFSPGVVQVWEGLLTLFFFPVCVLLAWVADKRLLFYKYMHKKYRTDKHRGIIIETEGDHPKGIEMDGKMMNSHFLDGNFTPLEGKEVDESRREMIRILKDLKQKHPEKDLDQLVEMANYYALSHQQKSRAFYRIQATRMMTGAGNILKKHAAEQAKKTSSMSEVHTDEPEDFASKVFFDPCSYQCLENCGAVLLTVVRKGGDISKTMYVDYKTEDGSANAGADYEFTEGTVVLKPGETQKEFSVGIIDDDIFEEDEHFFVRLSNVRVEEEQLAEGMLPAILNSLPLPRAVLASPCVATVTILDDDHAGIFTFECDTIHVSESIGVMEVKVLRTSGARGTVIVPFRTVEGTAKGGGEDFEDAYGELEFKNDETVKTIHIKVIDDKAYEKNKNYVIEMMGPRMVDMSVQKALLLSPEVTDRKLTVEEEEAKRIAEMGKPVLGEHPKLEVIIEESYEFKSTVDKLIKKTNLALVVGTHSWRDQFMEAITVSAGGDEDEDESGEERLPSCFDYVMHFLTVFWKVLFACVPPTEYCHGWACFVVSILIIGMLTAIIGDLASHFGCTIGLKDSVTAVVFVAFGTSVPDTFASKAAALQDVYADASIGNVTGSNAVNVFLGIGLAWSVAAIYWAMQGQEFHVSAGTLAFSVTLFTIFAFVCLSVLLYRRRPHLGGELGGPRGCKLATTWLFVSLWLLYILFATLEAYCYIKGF
UniProt Q9EPK8: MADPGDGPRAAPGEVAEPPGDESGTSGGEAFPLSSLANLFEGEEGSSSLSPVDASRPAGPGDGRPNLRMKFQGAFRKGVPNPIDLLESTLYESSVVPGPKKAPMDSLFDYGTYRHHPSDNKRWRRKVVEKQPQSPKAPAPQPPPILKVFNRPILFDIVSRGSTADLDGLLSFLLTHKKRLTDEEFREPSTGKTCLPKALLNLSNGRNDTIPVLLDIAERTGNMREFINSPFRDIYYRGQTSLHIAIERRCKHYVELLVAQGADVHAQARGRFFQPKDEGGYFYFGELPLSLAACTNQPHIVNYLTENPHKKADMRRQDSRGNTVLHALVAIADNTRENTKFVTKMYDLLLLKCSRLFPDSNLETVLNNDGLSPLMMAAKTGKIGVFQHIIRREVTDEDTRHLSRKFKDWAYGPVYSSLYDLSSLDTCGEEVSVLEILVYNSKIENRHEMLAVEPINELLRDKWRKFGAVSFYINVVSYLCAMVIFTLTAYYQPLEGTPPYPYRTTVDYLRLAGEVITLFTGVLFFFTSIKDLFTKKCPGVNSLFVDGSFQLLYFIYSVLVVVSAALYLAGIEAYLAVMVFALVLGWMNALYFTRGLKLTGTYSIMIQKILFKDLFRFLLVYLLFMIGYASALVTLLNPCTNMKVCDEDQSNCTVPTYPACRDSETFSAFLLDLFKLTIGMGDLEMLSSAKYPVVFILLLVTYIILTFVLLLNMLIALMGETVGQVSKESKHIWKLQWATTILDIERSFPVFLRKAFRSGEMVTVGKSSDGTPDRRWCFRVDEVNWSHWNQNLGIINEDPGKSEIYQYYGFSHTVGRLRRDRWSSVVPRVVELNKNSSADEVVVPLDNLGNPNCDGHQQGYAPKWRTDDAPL
UniProt P11881: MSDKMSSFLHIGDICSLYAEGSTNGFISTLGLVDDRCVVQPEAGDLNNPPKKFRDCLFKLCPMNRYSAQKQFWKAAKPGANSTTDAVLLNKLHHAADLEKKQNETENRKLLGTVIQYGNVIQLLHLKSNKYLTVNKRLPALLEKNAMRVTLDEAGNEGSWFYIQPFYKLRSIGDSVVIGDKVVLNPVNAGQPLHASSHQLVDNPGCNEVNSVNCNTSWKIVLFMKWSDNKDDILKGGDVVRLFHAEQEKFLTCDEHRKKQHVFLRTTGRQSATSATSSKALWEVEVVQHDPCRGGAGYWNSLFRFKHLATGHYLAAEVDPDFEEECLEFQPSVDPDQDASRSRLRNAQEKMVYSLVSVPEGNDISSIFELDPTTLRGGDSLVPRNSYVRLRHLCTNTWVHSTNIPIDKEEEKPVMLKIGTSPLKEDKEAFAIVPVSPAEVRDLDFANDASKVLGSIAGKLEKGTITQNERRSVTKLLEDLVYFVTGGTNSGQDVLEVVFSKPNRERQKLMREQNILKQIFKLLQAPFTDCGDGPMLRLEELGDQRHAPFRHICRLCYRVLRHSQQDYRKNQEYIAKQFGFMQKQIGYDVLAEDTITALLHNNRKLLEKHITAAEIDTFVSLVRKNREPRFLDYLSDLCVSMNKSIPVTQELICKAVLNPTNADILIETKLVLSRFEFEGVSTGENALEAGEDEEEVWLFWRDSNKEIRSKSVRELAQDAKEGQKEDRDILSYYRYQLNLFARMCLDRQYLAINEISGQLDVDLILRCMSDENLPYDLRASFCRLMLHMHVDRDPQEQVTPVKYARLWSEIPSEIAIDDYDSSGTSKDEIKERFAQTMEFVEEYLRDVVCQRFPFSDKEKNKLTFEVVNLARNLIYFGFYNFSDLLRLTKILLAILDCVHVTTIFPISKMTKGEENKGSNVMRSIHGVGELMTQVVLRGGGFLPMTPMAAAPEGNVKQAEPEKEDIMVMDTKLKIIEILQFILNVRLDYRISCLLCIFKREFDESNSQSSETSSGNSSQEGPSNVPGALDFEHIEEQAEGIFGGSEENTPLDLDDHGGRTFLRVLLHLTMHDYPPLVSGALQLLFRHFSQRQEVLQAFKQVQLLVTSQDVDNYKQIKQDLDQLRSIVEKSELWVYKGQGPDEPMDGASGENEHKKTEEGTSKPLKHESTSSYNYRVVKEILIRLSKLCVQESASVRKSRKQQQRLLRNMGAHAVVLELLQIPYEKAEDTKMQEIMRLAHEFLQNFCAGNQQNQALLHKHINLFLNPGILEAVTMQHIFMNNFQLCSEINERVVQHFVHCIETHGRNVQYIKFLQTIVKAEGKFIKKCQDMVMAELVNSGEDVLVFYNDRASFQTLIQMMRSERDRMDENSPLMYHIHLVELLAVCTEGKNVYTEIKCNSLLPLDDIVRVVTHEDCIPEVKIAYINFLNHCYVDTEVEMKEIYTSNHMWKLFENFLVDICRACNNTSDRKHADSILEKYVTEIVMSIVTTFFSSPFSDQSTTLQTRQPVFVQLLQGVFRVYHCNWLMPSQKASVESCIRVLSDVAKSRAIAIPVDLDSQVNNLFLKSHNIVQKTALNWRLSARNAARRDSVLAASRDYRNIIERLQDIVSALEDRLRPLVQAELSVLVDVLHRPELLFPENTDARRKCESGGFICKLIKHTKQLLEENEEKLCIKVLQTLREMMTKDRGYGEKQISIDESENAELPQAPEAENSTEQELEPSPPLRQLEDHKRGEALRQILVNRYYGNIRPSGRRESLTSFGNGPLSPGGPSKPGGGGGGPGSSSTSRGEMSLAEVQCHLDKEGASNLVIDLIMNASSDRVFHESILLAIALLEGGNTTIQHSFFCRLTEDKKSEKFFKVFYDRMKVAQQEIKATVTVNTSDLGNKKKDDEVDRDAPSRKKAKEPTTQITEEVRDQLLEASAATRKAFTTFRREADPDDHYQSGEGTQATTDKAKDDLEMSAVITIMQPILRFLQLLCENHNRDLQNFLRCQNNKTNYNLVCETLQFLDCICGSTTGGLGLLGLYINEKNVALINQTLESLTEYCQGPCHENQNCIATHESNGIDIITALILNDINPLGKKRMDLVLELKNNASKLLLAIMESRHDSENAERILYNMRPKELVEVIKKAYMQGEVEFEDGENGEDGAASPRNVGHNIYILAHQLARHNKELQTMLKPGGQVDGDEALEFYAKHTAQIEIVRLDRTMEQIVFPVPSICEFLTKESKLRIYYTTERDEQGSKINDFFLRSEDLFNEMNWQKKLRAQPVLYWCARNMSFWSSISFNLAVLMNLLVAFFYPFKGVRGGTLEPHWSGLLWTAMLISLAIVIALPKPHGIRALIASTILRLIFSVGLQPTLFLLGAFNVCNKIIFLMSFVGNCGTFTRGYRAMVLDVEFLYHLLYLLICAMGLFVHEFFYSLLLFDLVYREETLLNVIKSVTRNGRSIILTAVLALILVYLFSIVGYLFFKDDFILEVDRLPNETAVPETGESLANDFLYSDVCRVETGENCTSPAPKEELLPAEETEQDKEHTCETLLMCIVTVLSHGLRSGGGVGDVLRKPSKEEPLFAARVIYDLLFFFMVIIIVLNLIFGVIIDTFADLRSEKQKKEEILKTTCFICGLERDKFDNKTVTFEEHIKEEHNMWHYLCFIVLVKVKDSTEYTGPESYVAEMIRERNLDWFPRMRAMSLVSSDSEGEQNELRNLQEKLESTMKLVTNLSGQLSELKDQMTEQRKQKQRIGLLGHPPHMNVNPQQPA

binding [1]	binding [2]	binding [3]	binding [4]	binding [5]	Substance
			binds	binds	Na+/Ca2+ exchanger 2 (from UniProt Q8K596 21-921)
			binds	binds	Na+/Ca2+ exchanger 1 (from UniProt P70414 33-970)
			binds	binds	Na+/Ca2+ exchanger 3 (from UniProt S4R2P9 31-928)

More lines, now with the values behind:

Substance	binding [1]	binding [2]	binding [3]	binding [4]	binding [5]
IP3 receptor 1 (inositol 1,4,5-trisphosphate receptor subtype 1) (from UniProt P11881 1-2749)	binds	binds	binds	binds	
Transient receptor potential vanilloid 4 (from UniProt Q9EPK8 1-871)	binds	binds	binds		binds

Source: paper PMC6910018
